# Results taken from the supplement of paper PMC6411743.
# Amino acid sequences for entries named in this document (tags omitted). A change or cut given only in a name is not applied to a line headed by its entry.
# UniProt Q96EP0: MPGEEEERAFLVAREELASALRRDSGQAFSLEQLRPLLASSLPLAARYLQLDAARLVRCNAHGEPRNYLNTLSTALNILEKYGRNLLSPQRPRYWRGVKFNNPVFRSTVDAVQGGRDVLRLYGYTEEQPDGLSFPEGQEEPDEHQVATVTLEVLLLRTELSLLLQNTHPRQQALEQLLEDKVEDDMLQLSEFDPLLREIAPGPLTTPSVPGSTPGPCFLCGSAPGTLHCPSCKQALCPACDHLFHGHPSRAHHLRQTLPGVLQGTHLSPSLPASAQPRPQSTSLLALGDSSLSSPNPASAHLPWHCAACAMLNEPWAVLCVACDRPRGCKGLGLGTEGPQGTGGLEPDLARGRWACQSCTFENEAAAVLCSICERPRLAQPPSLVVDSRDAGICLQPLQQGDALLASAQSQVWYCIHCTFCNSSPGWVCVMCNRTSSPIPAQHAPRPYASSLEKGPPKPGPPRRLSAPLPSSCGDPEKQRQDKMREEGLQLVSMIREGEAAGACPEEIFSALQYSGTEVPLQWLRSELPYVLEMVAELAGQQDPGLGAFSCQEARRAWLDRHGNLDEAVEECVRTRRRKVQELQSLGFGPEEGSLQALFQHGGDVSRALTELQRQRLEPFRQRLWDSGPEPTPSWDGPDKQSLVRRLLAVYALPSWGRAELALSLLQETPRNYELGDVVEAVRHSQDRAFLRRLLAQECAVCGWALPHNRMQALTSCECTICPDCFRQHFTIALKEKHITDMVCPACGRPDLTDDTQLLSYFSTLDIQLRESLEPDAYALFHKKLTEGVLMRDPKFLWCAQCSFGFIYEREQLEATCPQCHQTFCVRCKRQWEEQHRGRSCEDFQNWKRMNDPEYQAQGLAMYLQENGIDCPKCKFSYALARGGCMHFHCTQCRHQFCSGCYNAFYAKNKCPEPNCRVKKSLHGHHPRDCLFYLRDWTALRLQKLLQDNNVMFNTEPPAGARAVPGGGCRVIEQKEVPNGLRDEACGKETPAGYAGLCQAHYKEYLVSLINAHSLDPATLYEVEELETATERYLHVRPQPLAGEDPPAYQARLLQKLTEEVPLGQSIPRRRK
# UniProt Q96Q15: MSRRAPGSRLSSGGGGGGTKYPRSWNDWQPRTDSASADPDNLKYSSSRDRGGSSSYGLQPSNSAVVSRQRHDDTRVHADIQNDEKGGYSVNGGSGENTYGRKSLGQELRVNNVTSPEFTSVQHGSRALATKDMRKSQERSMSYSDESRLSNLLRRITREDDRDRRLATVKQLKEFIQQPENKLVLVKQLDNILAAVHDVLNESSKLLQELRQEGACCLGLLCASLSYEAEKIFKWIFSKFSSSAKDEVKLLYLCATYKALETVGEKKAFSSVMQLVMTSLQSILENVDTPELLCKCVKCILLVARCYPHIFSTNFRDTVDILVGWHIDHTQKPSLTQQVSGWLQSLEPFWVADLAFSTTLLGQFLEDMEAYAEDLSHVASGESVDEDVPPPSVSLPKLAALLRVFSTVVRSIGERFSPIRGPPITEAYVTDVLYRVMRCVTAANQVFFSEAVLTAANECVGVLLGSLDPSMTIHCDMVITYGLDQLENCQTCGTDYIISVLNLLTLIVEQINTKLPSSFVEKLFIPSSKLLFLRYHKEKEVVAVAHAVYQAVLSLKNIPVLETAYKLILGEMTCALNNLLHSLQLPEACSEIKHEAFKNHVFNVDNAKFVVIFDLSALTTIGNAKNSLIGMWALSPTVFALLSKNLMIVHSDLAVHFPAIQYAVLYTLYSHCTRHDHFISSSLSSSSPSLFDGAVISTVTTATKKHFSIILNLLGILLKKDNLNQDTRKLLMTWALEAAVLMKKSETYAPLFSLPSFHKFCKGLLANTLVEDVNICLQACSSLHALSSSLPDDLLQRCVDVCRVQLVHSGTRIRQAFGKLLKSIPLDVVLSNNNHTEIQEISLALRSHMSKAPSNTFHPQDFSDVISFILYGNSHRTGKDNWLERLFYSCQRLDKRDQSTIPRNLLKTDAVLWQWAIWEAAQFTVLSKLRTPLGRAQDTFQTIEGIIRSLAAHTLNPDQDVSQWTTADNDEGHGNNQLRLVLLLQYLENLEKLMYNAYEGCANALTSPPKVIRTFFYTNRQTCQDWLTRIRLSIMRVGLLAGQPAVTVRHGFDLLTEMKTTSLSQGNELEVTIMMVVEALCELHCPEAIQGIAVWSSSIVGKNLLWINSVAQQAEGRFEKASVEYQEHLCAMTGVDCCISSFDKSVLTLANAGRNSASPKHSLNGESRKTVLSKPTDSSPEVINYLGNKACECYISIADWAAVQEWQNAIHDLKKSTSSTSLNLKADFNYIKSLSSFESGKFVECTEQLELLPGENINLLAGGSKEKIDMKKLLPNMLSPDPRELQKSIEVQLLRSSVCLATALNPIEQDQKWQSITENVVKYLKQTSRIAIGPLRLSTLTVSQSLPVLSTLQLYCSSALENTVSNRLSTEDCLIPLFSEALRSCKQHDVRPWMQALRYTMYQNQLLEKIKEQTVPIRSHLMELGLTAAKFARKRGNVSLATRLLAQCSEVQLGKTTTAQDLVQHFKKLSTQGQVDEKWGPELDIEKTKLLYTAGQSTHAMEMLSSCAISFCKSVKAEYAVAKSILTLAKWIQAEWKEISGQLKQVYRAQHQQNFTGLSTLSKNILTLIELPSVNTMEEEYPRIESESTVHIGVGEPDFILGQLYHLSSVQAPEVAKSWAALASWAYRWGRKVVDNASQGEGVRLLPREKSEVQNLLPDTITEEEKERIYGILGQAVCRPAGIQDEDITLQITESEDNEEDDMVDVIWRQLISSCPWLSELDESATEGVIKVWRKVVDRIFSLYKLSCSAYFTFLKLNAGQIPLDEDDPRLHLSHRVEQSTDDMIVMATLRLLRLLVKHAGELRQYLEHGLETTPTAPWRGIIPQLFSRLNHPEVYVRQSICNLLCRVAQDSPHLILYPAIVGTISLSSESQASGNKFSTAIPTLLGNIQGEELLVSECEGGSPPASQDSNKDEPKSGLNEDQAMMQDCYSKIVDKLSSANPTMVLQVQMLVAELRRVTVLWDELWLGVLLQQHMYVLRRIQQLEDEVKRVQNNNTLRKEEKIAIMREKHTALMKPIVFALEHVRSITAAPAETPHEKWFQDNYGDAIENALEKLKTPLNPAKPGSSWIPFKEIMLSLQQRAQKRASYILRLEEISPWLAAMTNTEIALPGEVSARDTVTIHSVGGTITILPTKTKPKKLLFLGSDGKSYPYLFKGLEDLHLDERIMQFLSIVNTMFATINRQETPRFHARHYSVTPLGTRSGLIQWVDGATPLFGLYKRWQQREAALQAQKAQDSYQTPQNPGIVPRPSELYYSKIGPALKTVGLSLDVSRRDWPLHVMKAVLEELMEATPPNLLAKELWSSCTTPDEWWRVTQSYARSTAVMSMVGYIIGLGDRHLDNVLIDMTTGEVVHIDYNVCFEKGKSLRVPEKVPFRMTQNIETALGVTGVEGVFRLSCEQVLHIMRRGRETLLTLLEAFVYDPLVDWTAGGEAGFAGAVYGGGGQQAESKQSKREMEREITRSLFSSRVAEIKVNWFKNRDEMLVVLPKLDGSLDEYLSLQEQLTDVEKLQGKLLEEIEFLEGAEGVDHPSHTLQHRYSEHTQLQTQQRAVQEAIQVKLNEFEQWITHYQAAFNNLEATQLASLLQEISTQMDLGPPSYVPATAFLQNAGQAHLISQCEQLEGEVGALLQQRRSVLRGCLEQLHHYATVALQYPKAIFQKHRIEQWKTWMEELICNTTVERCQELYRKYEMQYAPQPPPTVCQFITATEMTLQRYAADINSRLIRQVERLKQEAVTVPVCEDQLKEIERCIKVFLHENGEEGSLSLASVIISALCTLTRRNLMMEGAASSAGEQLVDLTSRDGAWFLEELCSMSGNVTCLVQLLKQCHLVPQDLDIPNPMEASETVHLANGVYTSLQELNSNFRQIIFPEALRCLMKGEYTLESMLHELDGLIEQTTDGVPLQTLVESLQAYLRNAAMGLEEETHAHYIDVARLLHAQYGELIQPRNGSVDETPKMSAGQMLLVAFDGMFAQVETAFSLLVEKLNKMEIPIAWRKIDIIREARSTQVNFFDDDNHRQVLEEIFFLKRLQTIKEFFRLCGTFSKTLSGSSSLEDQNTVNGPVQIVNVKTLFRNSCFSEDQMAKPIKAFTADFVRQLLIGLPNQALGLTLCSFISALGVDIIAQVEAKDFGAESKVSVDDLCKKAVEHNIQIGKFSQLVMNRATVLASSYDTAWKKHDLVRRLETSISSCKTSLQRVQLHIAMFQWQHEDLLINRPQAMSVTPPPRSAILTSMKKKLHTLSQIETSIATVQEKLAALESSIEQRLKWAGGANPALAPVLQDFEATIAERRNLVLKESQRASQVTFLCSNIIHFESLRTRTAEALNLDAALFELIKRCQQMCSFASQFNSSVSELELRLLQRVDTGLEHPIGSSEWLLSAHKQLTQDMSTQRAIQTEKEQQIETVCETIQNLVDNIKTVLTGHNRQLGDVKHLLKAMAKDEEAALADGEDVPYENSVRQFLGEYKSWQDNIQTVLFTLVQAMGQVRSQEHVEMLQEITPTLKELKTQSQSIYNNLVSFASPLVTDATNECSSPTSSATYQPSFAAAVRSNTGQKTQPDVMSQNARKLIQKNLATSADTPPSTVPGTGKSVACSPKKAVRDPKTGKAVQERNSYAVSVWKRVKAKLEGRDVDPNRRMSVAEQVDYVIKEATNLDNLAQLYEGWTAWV
# UniProt Q969S9: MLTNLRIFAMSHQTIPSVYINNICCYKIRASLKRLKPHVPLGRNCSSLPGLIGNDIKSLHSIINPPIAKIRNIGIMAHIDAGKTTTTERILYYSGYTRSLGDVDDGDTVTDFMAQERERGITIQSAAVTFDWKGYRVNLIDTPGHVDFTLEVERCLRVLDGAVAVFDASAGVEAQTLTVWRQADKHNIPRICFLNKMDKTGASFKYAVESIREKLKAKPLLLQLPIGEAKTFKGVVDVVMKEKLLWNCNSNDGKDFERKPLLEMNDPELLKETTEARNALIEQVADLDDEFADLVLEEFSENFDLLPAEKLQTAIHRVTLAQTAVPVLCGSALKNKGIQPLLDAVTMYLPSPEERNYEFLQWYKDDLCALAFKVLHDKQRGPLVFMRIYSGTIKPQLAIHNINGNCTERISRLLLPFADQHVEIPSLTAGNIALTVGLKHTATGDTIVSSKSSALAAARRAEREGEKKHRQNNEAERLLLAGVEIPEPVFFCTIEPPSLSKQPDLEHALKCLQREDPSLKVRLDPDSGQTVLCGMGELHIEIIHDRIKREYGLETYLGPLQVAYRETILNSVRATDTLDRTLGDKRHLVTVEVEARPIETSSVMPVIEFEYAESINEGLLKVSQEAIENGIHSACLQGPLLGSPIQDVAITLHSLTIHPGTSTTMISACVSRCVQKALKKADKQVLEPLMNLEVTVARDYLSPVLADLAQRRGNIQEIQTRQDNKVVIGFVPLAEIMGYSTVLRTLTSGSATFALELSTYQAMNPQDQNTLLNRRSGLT
# UniProt Q96EX1: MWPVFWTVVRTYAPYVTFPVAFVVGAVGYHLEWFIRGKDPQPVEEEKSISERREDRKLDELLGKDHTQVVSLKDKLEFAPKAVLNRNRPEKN
# UniProt Q96IX5: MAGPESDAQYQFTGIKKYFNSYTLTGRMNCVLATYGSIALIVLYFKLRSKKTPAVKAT
# UniProt Q96JC1: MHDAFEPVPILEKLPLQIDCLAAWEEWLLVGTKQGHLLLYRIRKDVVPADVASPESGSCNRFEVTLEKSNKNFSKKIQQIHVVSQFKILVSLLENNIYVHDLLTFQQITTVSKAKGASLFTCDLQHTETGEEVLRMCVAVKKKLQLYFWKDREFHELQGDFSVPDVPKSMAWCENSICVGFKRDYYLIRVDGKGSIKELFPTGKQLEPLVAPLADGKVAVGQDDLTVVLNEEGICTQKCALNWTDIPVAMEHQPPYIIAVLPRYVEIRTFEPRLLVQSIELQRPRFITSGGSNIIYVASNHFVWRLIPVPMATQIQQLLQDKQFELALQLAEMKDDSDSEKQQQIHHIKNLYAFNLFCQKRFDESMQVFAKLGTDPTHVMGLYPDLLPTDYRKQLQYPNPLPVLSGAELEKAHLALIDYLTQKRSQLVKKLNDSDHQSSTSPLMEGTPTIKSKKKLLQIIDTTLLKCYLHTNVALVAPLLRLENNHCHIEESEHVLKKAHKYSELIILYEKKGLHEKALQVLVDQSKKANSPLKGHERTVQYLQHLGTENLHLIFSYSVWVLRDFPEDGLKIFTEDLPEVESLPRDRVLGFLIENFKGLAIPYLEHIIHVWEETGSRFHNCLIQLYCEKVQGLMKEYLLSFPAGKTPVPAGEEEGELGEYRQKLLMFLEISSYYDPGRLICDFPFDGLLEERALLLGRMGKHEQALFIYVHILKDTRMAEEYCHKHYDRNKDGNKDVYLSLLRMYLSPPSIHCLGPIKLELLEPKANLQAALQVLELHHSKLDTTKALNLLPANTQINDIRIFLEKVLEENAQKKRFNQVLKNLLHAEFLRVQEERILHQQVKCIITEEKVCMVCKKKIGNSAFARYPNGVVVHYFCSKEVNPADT
# ± gives the standard deviation of the averaged measurements. The entries are a selection whose mix differs from that of the whole data set. Most entries show no effect beyond the scatter of the controls.
# Compound: Nc1ncnc2c1ncn2[C@@H]1O[C@H](COP(=O)(O)OP(=O)(O)NP(=O)(O)O)[C@@H](O)[C@H]1O [adenylyl imidodiphosphate]
# Assay: NP40-soluble protein abundance relative to vehicle (solubility fold change) (ratio); higher = more soluble protein in presence of AMP-PNP
# How it was run: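 Values are fold changes against the detergent-processed vehicle, based on vsn-normalised intensities. Jurkat crude lysate was treated at eight concentrations from 0.1 to 10 mM (10 min at room temperature, then 3 min at 37 °C), solubilised with 0.8% NP40 and benzonase, ultracentrifuged and analysed by TMT-labelled LC-MS/MS over three independent experiments.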
Target,NP40-soluble protein abundance (concentration: 0.1mM),NP40-soluble protein abundance (concentration: 0.5mM)
UniProt Q96QT6 and related entries,0.989 ± 0.019,1.01 ± 0.044
UniProt Q969M7 and related entries,0.989 ± 0.029,0.983 ± 0.054
CUL5 (UniProt Q93034),1.02 ± 0.034,0.983 ± 0.067
UniProt Q93015 and related entries,0.949 ± 0.027,0.973 ± 0.073
RNF31 (UniProt Q96EP0),0.9915 ± 0.0089,0.948 ± 0.011
UniProt Q96HN2-2|Q96HN2,0.987 ± 0.026,1.01 ± 0.03
SIPA1 (UniProt Q96FS4),0.994 ± 0.018,1 ± 0.02
MRPL53 (UniProt Q96EL3),1.03 ± 0.023,1.03 ± 0.038
UniProt Q96F07-2,1.03 ± 0.028,0.979 ± 0.018
MCEE (UniProt Q96PE7),0.98 ± 0.023,1.04 ± 0.064
UniProt Q96Q15 and related entries,0.984 ± 0.045,0.969 ± 0.064
UniProt Q96B23-2,0.965 ± 0.055,1.03 ± 0.067
UniProt Q969S9 and related entries,1.02 ± 0.028,1 ± 0.015
UniProt Q96EX1,0.925 ± 0.023,1.06 ± 0.086
FUBP3 (UniProt Q96I24),0.992 ± 0.034,0.994 ± 0.038
MUL1 (UniProt Q969V5),0.977 ± 0.022,1.01 ± 0.014
HSPBAP1 (UniProt Q96EW2),1.004 ± 0.0058,1.005 ± 0.0071
PPP1R10 (UniProt Q96QC0),0.999 ± 0.021,0.996 ± 0.027
UniProt Q96DC7 and related entries,1.02 ± 0.032,0.989 ± 0.019
DNAJA3 (UniProt Q96EY1),1 ± 0.045,0.99 ± 0.058
UniProt Q96IV0 and related entries,0.977 ± 0.046,0.972 ± 0.033
UniProt Q96B01 and related entries,1 ± 0.029,1.03 ± 0.023
PRRC1 (UniProt Q96M27),1.04 ± 0.069,1 ± 0.012
ZC3H10 (UniProt Q96K80),0.9652 ± 0.0011,0.993 ± 0.057
UniProt Q96IX5,1.02 ± 0.066,1.12 ± 0.15
UniProt Q96EK5,1.03 ± 0.013,1 ± 0.059
UniProt Q969P0 and related entries,1.009 ± 0.0043,0.992 ± 0.042

# A second format for some results above:
Target	NP40-soluble protein abundance (concentration: 0.1mM)	NP40-soluble protein abundance (concentration: 0.5mM)
UniProt Q96QT6 and related entries	0.989 ± 0.019	1.01 ± 0.044
RNF31 (UniProt Q96EP0)	0.9915 ± 0.0089	0.948 ± 0.011
MRPL53 (UniProt Q96EL3)	1.03 ± 0.023	1.03 ± 0.038
UniProt Q96B23-2	0.965 ± 0.055	1.03 ± 0.067
UniProt Q969S9 and related entries	1.02 ± 0.028	1 ± 0.015
UniProt Q96EX1	0.925 ± 0.023	1.06 ± 0.086
MUL1 (UniProt Q969V5)	0.977 ± 0.022	1.01 ± 0.014
PPP1R10 (UniProt Q96QC0)	0.999 ± 0.021	0.996 ± 0.027
UniProt Q96DC7 and related entries	1.02 ± 0.032	0.989 ± 0.019

# Additional entries follow.

Target,NP40-soluble protein abundance (concentration: 0.1mM),NP40-soluble protein abundance (concentration: 0.5mM)
UniProt Q96CS2,0.99 ± 0.086,0.98 ± 0.086
UniProt Q96GX9 and related entries,0.986 ± 0.024,0.994 ± 0.024
UniProt Q96JC1 and related entries,1.03 ± 0.017,1.01 ± 0.042
PTER (UniProt Q96BW5),0.998 ± 0.025,0.972 ± 0.032
UniProt Q96CW5 and related entries,1.07 ± 0.046,1.03 ± 0.057
UniProt Q96HA7 and related entries,0.985 ± 0.034,0.979 ± 0.03
UniProt Q96BY6 and related entries,1.01 ± 0.016,0.978 ± 0.026
UniProt Q96DA6 and related entries,1.04 ± 0.087,1.03 ± 0.096
RAB39B (UniProt Q96DA2),0.987 ± 0.025,1 ± 0.039
CCDC115 (UniProt Q96NT0),1.01 ± 0.046,1.02 ± 0.058
KIAA1143 (UniProt Q96AT1),0.988 ± 0.068,1.01 ± 0.035
UniProt Q96BN2,1.02 ± 0.021,1.03 ± 0.034
SNF8 (UniProt Q96H20),0.977 ± 0.023,0.9883 ± 0.0082
UniProt Q96P11 and related entries,1.01 ± 0.018,1.01 ± 0.014
TOE1 (UniProt Q96GM8),1.03 ± 0.021,1.07 ± 0.083
VPS35 (UniProt Q96QK1),1.03 ± 0.068,0.982 ± 0.08
UniProt Q96BR5,0.982 ± 0.043,1.03 ± 0.052
UniProt Q96AQ6 and related entries,1.01 ± 0.037,0.987 ± 0.025
UniProt Q92989 and related entries,1.06 ± 0.016,1.02 ± 0.017
UniProt Q96KG9 and related entries,0.996 ± 0.037,0.98 ± 0.04
UniProt Q96D71 and related entries,1 ± 0.038,0.9925 ± 0.0056
TESC (UniProt Q96BS2),0.974 ± 0.029,0.953 ± 0.045
UniProt Q96ER3 and related entries,0.9746 ± 0.0076,0.99 ± 0.011
UniProt Q96K76 and related entries,0.986 ± 0.029,0.985 ± 0.05
PINX1 (UniProt Q96BK5),1.06 ± 0.054,1.13 ± 0.12
UniProt Q969V3 and related entries,1.02 ± 0.018,0.974 ± 0.058
